PMC8533110

How the values were obtained:
[1] = biological target: T1, HrcA (Campylobacter jejuni NCTC 11168) (UniProt Q9PPG2); test: EMSA; conditions: EMSA: 10 mM Tris-HCl pH 8.0, 60 mM NaCl, 10 mM KCl, 5 mM MgCl2, 1 mM DTT, 0.05% NP40, 10% glycerol, residues 1-264, protein details: N-terminal 6xHis (pET15b), label: none (ethidium bromide stain), probe letters rebuilt from the primers and the genome
T1 sequence (looked up): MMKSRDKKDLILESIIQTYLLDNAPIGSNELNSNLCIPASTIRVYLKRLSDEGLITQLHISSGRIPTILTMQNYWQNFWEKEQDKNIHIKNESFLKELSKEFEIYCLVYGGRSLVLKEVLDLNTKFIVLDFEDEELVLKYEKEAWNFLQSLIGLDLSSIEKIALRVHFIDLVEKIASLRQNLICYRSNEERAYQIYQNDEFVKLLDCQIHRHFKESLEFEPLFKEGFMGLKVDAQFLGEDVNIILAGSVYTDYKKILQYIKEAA

[2] = biological target: T1, HrcA (Campylobacter jejuni NCTC 11168); test: DNase I footprinting; conditions: 42 C challenge then 25 C recovery, 45-180 nM; footprint: 5 mM Tris-HCl pH 8.0, 60 mM NaCl, 5 mM KCl, 5 mM MgCl2, 0.2 mM DTT, 0.01% NP40, 10% glycerol, salmon sperm DNA; 10 min at 25 C then 10 min at 25/37/42 C; recombinant protein; residues 1-264; protein details: N-terminal 6xHis (pET15b); label: 5'-32P on one end; probe letters rebuilt from the primers and the genome; part of a longer molecule

| Sequence | binding result ([1]; 25 C, GST control, no GroE, 18.7-150 nM, recombinant …) | binding result ([1]; 42 C challenge then 25 C recovery, 45-180 nM, recombinant protein) | binding result ([1]; 42 C, 45-180 nM, recombinant protein) | binding result [2] |
| --- | --- | --- | --- | --- |
| GGATCCGCACAACAACAAAAGCTACAATGCCATAAAAAATCTTTTTCATTTTTATCCTTTAGTTTATTTTATAAAATAACTTTAGTCTATAAAACTAAACTTTTATAAATATTTTAATTTAAAGTATTGACAAAATTCATTTTTTATAGTATGATATTATCACTCTAAATTAAAGAGTGCTAAAATCAATATTTTTAAGGATGGACAAAAATGAATTTTCAACCTTTAGGAAAGCGTGTTCTAGTTAAACGCGCTCGAG (double strand) [Pgro promoter probe (EMSA)] | binds | binds more weakly | binds more weakly |  |
| GCACAACAACAAAAGCTACAATGCCATAAAAAATCTTTTTCATTTTTATCCTTTAGTTTATTTTATAAAATAACTTTAGTCTATAAAACTAAACTTTTATAAATATTTTAATTTAAAGTATTGACAAAATTCATTTTTTATAGTATGATATTATCACTCTAAATTAAAGAGTGCTAAAATCAATATTTTTAAGGATGGACAAAAATGAATTTTCAACCTTTAGGAAAGCGTGTTCTAGTTAAACGCG (double strand) [Pgro promoter probe (footprint)] |  |  |  | binds more weakly |

For at least one entry, the source does not settle the construct or the ends of the probe. A weaker result is weaker than the reference pair of the same experiment. Where a protein sequence is shown, tags need not be part of it. For some of these results: At least one verdict rests on a figure or table, not on a statement of the authors.
